# From the supplement of paper PMC10032668
# Protein sequences, listed by entry. Tags and fused reporters are not part of them.
# HIST1H1E, P10412, UniProt P10412, whole entry: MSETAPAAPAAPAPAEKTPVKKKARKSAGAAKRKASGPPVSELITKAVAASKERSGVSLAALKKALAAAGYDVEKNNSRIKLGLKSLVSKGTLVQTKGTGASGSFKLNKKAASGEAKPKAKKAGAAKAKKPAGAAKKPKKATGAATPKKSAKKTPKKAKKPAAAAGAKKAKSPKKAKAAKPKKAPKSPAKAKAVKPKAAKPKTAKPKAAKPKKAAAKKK
# NCL, P19338, UniProt P19338, whole entry: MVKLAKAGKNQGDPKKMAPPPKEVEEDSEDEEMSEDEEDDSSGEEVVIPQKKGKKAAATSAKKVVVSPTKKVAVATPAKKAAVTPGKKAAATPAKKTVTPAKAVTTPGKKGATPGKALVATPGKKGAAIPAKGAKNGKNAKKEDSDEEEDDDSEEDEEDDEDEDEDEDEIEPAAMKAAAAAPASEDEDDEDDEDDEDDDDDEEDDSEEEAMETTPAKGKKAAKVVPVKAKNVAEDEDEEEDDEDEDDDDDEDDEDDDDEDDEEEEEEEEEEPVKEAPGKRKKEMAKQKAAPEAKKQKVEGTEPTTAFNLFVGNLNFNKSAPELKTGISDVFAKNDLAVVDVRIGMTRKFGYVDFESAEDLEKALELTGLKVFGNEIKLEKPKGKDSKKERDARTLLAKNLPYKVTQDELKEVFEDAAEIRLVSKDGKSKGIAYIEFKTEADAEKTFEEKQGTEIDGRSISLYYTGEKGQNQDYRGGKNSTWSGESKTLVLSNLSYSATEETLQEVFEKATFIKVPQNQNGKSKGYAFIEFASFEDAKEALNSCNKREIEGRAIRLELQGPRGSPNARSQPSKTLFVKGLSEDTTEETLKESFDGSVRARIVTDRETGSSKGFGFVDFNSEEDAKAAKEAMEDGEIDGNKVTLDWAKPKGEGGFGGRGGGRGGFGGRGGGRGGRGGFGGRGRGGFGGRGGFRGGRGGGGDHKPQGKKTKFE
# PSMD1, Q99460, UniProt Q99460, whole entry: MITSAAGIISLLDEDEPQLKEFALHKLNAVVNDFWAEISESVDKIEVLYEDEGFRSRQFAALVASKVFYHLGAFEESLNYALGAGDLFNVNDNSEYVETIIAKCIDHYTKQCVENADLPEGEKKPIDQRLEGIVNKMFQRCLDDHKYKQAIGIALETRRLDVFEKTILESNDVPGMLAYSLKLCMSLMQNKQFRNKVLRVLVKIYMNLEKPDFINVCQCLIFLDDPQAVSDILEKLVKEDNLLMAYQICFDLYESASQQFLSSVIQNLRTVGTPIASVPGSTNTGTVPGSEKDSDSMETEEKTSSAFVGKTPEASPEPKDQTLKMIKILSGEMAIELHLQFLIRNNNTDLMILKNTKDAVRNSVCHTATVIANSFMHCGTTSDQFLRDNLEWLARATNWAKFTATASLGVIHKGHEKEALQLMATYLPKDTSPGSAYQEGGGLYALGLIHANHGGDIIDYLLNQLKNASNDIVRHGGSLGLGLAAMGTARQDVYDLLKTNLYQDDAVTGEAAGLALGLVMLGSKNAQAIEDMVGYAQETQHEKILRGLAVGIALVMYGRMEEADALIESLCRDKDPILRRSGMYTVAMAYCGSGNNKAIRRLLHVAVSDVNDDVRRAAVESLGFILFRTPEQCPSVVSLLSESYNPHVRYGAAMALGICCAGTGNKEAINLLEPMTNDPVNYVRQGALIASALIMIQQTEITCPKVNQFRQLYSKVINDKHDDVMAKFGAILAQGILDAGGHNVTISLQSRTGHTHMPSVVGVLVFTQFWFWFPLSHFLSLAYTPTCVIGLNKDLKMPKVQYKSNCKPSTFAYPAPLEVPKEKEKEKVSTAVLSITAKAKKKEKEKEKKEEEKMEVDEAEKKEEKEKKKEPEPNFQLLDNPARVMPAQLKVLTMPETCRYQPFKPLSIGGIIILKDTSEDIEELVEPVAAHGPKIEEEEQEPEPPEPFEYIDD
# RFC5, P40937, UniProt P40937, whole entry: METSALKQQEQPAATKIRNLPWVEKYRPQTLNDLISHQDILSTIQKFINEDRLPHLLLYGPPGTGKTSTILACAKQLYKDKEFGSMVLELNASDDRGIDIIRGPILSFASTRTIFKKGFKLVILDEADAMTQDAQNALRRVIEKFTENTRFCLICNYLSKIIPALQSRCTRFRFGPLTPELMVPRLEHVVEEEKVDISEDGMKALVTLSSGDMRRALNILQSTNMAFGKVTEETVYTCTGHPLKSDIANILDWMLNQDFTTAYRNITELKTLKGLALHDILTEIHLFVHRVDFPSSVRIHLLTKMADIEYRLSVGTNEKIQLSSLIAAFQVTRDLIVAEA
# SET, Q01105, UniProt Q01105, whole entry: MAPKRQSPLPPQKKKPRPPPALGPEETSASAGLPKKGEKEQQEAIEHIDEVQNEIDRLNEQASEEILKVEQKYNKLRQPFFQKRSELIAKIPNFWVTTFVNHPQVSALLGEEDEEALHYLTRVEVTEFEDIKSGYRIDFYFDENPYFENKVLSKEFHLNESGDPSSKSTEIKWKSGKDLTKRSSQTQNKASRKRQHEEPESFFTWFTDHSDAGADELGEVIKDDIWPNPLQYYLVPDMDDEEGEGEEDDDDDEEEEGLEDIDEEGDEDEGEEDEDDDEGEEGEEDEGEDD
# WDR82, Q6UXN9, UniProt Q6UXN9, whole entry: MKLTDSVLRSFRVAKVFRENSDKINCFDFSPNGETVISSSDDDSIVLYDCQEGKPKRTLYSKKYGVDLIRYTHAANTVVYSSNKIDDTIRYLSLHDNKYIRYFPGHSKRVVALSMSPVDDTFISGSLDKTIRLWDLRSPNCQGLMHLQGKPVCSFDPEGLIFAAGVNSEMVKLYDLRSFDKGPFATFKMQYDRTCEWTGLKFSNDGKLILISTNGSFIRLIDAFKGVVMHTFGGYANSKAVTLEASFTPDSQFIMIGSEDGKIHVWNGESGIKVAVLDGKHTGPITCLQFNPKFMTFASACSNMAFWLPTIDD
# CDC20, Q12834, UniProt Q12834, whole entry: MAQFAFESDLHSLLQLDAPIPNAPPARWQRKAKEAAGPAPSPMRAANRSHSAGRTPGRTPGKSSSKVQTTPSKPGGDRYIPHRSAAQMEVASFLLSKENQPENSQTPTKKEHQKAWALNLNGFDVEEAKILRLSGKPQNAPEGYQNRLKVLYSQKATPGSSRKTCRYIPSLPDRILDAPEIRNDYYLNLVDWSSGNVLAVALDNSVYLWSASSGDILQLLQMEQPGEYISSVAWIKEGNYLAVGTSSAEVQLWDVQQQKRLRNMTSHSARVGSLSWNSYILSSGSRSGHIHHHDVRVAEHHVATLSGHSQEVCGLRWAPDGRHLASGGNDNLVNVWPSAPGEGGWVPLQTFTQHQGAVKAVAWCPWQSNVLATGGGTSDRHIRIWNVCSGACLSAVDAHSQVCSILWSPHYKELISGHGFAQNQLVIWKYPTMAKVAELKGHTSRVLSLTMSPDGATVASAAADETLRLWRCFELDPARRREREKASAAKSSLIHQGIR
# PCBP2, Q15366, UniProt Q15366, whole entry: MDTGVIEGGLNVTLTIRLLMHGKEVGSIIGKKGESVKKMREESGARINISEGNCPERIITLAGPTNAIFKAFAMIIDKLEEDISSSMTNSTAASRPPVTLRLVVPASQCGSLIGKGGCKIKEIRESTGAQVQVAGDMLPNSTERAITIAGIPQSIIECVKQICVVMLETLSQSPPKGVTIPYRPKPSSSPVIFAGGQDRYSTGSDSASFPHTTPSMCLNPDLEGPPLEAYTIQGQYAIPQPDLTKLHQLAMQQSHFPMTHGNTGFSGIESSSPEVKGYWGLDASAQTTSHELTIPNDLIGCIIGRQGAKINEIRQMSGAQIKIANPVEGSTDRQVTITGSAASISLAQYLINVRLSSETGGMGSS
# TUBB6, Q9BUF5, UniProt Q9BUF5, whole entry: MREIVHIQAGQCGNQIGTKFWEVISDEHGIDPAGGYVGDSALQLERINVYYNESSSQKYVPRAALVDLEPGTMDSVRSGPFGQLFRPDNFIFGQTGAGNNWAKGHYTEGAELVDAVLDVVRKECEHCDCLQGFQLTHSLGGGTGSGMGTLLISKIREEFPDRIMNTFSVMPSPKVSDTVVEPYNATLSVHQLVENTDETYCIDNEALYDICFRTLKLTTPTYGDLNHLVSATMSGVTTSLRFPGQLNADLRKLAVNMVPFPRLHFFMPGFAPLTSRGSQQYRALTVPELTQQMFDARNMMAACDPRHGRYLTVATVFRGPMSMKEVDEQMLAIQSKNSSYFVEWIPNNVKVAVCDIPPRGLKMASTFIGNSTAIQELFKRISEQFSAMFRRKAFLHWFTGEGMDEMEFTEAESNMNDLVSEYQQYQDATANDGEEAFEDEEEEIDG
# The other results are listed elsewhere or left out. The list holds hits alone, and they repeat only in part.
# B1: ZEB2 (peptide)
# chain: SPTEKKKKKMSLEEA
# B2: RP1-206D15.6 (peptide)
# chain: SFLFTVSGMSIQFPL
# Legend:
# Test in all cases: PRISMA enrichment of interactor (LFQ) in peptide spot vs all other peptide spots (log2 fold change); higher = stronger / more specific binding of the interactor to the peptide
# ADAR, P55265 = target: ADAR, P55265
# Description: (§1)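 PRISMA: 15-aa overlapping tiles (offset 8 aa) of 60 microproteins, plus SOS1/GLUT1 control peptides, were spot-synthesized on cellulose membranes in triplicate. Membranes were incubated with benzonase-treated HEK293T lysate, and bound proteins were identified by LC-MS/MS with LFQ. Enrichment is the log2 fold change of each protein in one spot versus all other spots. Only interactors passing the significance cutoff are listed.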
# ANP32A, P39687 = target: ANP32A, P39687
# Description: as §1
# ANP32B, Q92688 = target: ANP32B, Q92688
# Description: as §1
# HDGFL2, Q7Z4V5 = target: HDGFL2, Q7Z4V5
# Description: as §1
# HIST1H1E, P10412 = target: HIST1H1E, P10412
# Description: as §1
# MACF1 = target: MACF1
# Description: as §1
# MRPS5, P82675 = target: MRPS5, P82675
# Description: as §1
# NCL, P19338 = target: NCL, P19338
# Description: as §1
# NOLC1, Q14978 = target: NOLC1, Q14978
# Description: as §1
# NTMT1, Q9BV86 = target: NTMT1, Q9BV86
# Description: as §1
# NUCKS1, Q9H1E3 = target: NUCKS1, Q9H1E3
# Description: as §1
# OGFR, Q9NZT2 = target: OGFR, Q9NZT2
# Description: as §1
# PCYT1A, P49585 = target: PCYT1A, P49585
# Description: as §1
# PDS5B, Q9NTI5 = target: PDS5B, Q9NTI5
# Description: as §1
# PSMD1, Q99460 = target: PSMD1, Q99460
# Description: as §1
# PSPC1, Q8WXF1 = target: PSPC1, Q8WXF1
# Description: as §1
# PTMA, P06454 = target: PTMA, P06454
# Description: as §1
# RFC5, P40937 = target: RFC5, P40937
# Description: as §1
# RTF1, Q92541 = target: RTF1, Q92541
# Description: as §1
# SET, Q01105 = target: SET, Q01105
# Description: as §1
# SRSF2, Q01130 = target: SRSF2, Q01130
# Description: as §1
# TXNDC5, Q8NBS9 = target: TXNDC5, Q8NBS9
# Description: as §1
# UTP14A, Q9BVJ6 = target: UTP14A, Q9BVJ6
# Description: as §1
# WDR82, Q6UXN9 = target: WDR82, Q6UXN9
# Description: as §1
# ZC3H18, Q86VM9 = target: ZC3H18, Q86VM9
# Description: as §1
# ADNP, Q9H2P0 = target: ADNP, Q9H2P0
# Description: as §1
# CDC20, Q12834 = target: CDC20, Q12834
# Description: as §1
# CDCA5, Q96FF9 = target: CDCA5, Q96FF9
# Description: as §1
# CDKN2AIPNL, Q96HQ2 = target: CDKN2AIPNL, Q96HQ2
# Description: as §1
# CNN3, Q15417 = target: CNN3, Q15417
# Description: as §1
# EI24, O14681 = target: EI24, O14681
# Description: as §1
# FAM168A, Q92567 = target: FAM168A, Q92567
# Description: as §1
# NUP37, Q8NFH4 = target: NUP37, Q8NFH4
# Description: as §1
# OGT, O15294 = target: OGT, O15294
# Description: as §1
# PCBP2, Q15366 = target: PCBP2, Q15366
# Description: as §1
# PDIA4, P13667 = target: PDIA4, P13667
# Description: as §1
# PFAS, O15067 = target: PFAS, O15067
# Description: as §1
# PSMD6, Q15008 = target: PSMD6, Q15008
# Description: as §1
# TOMM6, Q96B49 = target: TOMM6, Q96B49
# Description: as §1
# TSPYL2, Q9H2G4 = target: TSPYL2, Q9H2G4
# Description: as §1
# TUBB6, Q9BUF5 = target: TUBB6, Q9BUF5
# Description: as §1
# ZBTB10, Q96DT7 = target: ZBTB10, Q96DT7
# Description: as §1
binder,measurement,setting,value
B1,PRISMA enrichment of interactor (log2),"ADAR, P55265",4.88
same,PRISMA enrichment of interactor (log2),"ANP32A, P39687",8.76
same,PRISMA enrichment of interactor (log2),"ANP32B, Q92688",6.37
same,PRISMA enrichment of interactor (log2),"HDGFL2, Q7Z4V5",4.5
same,PRISMA enrichment of interactor (log2),"HIST1H1E, P10412",5.9
same,PRISMA enrichment of interactor (log2),MACF1,5.62
same,PRISMA enrichment of interactor (log2),"MRPS5, P82675",6.13
same,PRISMA enrichment of interactor (log2),"NCL, P19338",7.01
same,PRISMA enrichment of interactor (log2),"NOLC1, Q14978",6.3
same,PRISMA enrichment of interactor (log2),"NTMT1, Q9BV86",5.25
same,PRISMA enrichment of interactor (log2),"NUCKS1, Q9H1E3",4.6
same,PRISMA enrichment of interactor (log2),"OGFR, Q9NZT2",8.68
same,PRISMA enrichment of interactor (log2),"PCYT1A, P49585",6.44
same,PRISMA enrichment of interactor (log2),"PDS5B, Q9NTI5",4.62
same,PRISMA enrichment of interactor (log2),"PSMD1, Q99460",6.74
same,PRISMA enrichment of interactor (log2),"PSPC1, Q8WXF1",4.71
same,PRISMA enrichment of interactor (log2),"PTMA, P06454",7.89
same,PRISMA enrichment of interactor (log2),"RFC5, P40937",5.64
same,PRISMA enrichment of interactor (log2),"RTF1, Q92541",4.43
same,PRISMA enrichment of interactor (log2),"SET, Q01105",6.7
same,PRISMA enrichment of interactor (log2),"SRSF2, Q01130",5.23
same,PRISMA enrichment of interactor (log2),"TXNDC5, Q8NBS9",4.76
same,PRISMA enrichment of interactor (log2),"UTP14A, Q9BVJ6",5
same,PRISMA enrichment of interactor (log2),"WDR82, Q6UXN9",4.63
same,PRISMA enrichment of interactor (log2),"ZC3H18, Q86VM9",4.59
B2,PRISMA enrichment of interactor (log2),"ADNP, Q9H2P0",5.83
same,PRISMA enrichment of interactor (log2),"CDC20, Q12834",8.18
same,PRISMA enrichment of interactor (log2),"CDCA5, Q96FF9",4.5
same,PRISMA enrichment of interactor (log2),"CDKN2AIPNL, Q96HQ2",4.36
same,PRISMA enrichment of interactor (log2),"CNN3, Q15417",5.81
same,PRISMA enrichment of interactor (log2),"EI24, O14681",6.91
same,PRISMA enrichment of interactor (log2),"FAM168A, Q92567",4.56
same,PRISMA enrichment of interactor (log2),"NUP37, Q8NFH4",6.21
same,PRISMA enrichment of interactor (log2),"OGT, O15294",4.63
same,PRISMA enrichment of interactor (log2),"PCBP2, Q15366",3.99
same,PRISMA enrichment of interactor (log2),"PDIA4, P13667",4.75
same,PRISMA enrichment of interactor (log2),"PFAS, O15067",3.79
same,PRISMA enrichment of interactor (log2),"PSMD6, Q15008",6.01
same,PRISMA enrichment of interactor (log2),"TOMM6, Q96B49",4.5
same,PRISMA enrichment of interactor (log2),"TSPYL2, Q9H2G4",5.07
same,PRISMA enrichment of interactor (log2),"TUBB6, Q9BUF5",5.1
same,PRISMA enrichment of interactor (log2),"ZBTB10, Q96DT7",5.07

# Nothing new here: an excerpt of the list.
binder,measurement,setting,value
B1,PRISMA enrichment of interactor (log2),"NUCKS1, Q9H1E3",4.6
same,PRISMA enrichment of interactor (log2),"OGFR, Q9NZT2",8.68
